We go through 57 compounds from PubChem BioAssay AID2685 (National Center for Advancing Translational Sciences (NCATS), 2010).

The AC50 is the concentration at which the activity in the assay is half-maximal. High values mean weaker potency, low ones greater potency.

This test in a line: qHTS Assay for Lipid Storage Modulators in Drosophila S3 Cells.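 On cell number change: cells counted by Cell Tracker Red CMTPX staining in the red channel.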 The conditions noted are these: BODIPY lipid droplet fluorescence, 18-24 h; for cell number change: measured here: cell count max response, cells fed with added oleic acid. A digest of the protocol: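 Laser-scanning cytometry quantifies lipid droplet accumulation (500–530 nm total intensity; droplet/cell object ratio) in oleic acid-fed (400 uM added) Drosophila S3 cells treated with a concentration series. 20 uM Triacsin C defined 100% inhibition.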
A general note: In qHTS, concentration-response curves come from the screen itself.

The mark [1] stands for this setting: measured here: lipid fluorescence (Fed channel) AC50, cells fed with added oleic acid.
Where [2] appears, read: measured here: cell number channel AC50, cells fed with added oleic acid.

The other results are listed elsewhere or left out. These are further read-outs of the screen, such as a control signal, another cell line or another target. No call is given for them. Compounds called inactive in the main read-out are mostly missing here. Words in brackets tell the shape of the fitted curve; partial curves, single points and poor fits give uncertain potencies.

With `CC(C)CC(C)N` (centres undefined), the cell number change turned out to be 1.1%. For the same compound, the AC50 under setting [1] is 18.4 µM [rising, single point].

Consider `CC(=Nc1ccc2c(c1)CCC2)c1c(O)n(C)c(=O)n(C)c1=O`, for which the cell number change was -30.9%. Also, the half-maximal activity concentration (AC50) under setting [2] was 2.31 µM [falling, full curve].

Take `C/C=C(\C)C(=O)N[C@@H](c1ccccc1)[C@@H](O)C(=O)O[C@H]1C[C@@]2(O)[C@@H](OC(=O)c3ccccc3)C3[C@](C)(C(=O)[C@H](OC(C)=O)C(=C1C)C2(C)C)[C@H](O)C[C@H]1OC[C@@]31OC(C)=O` (some centres undefined): the cell number change is -23.9%. Besides, under setting [1], the AC50 is 1.3 µM [rising, partial curve].

Turning to `CN=C(SCc1ccccc1)c1c(O)n(C)c(=O)n(C)c1=O`, the cell number change came out at 24.8%. Moreover, the AC50 under setting [1] is 0.164 µM [rising, full curve].

On to `O=C(c1cc(S(=O)(=O)N2CCOCC2)ccc1F)N1CCC2(CC1)OCCO2`, for which the cell number change stood at 2.64%.

In the case of `Cc1ccc(N(C)C(=O)Oc2ccc(C(=O)c3ccc(Cl)cc3)cc2)cc1`, the cell number change was -62.8%. Further, the AC50 under setting [2] is 20.6 µM [falling, single point].

As to `C=CCn1c(O)c(C(C)=NCCC(c2ccccc2)c2ccccc2)c(=O)[nH]c1=O`, the cell number change stood at 7.79%. Moreover, under setting [1], the AC50 is 3.26 µM [rising, full curve, poor fit].

For the compound `CC12CCCCC1N(O)CN2O` (centres undefined), the cell number change was 30.8%. Under setting [2], the concentration at half-maximal activity (AC50) was 1.64 µM [rising, full curve].

Consider `CCCCCn1c(=O)c(C(=O)NCc2ccccn2)c(O)c2ccccc21`, for which the cell number change was -2.59%. Further, the half-maximal activity concentration (AC50) under setting [1] is 0.0651 µM [rising, full curve, poor fit].

Take `O=C1NC(=O)N(c2ccc3c(c2)OCO3)C(=O)/C1=C/c1ccc(N2CCCCC2)o1`: the cell number change was 29.1%.

As to `COc1ccc(CCN(C)Cc2c(F)cccc2F)cc1OC`, the cell number change came to 6.42%. Moreover, the concentration at half-maximal activity (AC50) under setting [1] was 29.1 µM [rising, single point].

With `O=C(COC(=O)Cc1ccccc1)NCCNC(=O)COC(=O)Cc1ccccc1`, the cell number change is -23%. Also, the AC50 under setting [2] was 4.11 µM [falling, partial curve, poor fit]. For the same compound, the concentration at half-maximal activity (AC50) under setting [1] is 4.61 µM [falling, partial curve, poor fit].

Take `CC(=O)OC1(c2ccc(C)cc2)CN2CCC1c1ccccc12` (centres undefined): the cell number change stood at 6.72%. Also, the concentration at half-maximal activity (AC50) under setting [1] is 0.0103 µM [rising, full curve, poor fit].

For `CC(C(=O)c1ccc(Cl)cc1Cl)n1cncn1` (centres undefined), the cell number change is 5.41%. Under setting [2], the half-maximal activity concentration (AC50) was 2.06 µM [rising, partial curve]. For the same compound, the AC50 under setting [1] is 29.1 µM [falling, single point].

On to `CCN1C(=O)N(CC)C(=O)C2(Cc3ccccc3N3CCN(c4ccccc4)CC32)C1=O` (centres undefined), for which the cell number change came out at 14.5%. Besides, the AC50 under setting [1] is 23.1 µM [rising, single point].

Turning to `O=C1NC(=O)[C@]2(Cc3ccccc3N3CCN(c4ccccc4)CC32)C(=O)N1Cc1ccccc1` (some centres undefined), the AC50 is, setting by setting: under setting [2], 0.146 µM [rising, single point]; under setting [1], 29.1 µM [falling, partial curve].

As to `Fc1ccc(CNC2CN3CCC2CC3)cc1` (centres undefined), the cell number change is -8.55%.

Turning to `CC1(C)NC(=O)N(c2ccc([N+](=O)[O-])c(C(F)(F)F)c2)C1=O`, the half-maximal activity concentration (AC50) under setting [2] was 8.2 µM [rising, partial curve, poor fit].

With `CC12CCCCC1=[N+]([O-])CN2O` (centres undefined), the cell number change was -2.54%. In addition, under setting [2], the AC50 was 6.51 µM [falling, single point]. Moreover, the AC50 under setting [1] is 5.8 µM [falling, single point].

For the compound `OC1C2CN3CN(C2)CC1(c1ccccc1)C3` (centres undefined), the cell number change is -29.9%. Besides, under setting [2], the AC50 was 0.0058 µM [falling, full curve].

For `CCCCCn1c(=O)c(C(=O)Nc2ccccc2Cl)c(O)c2ccccc21`, the cell number change amounted to 17.2%. Further, the AC50 under setting [1] is 5.17 µM [rising, partial curve].

With `COc1ccc(C(=O)C2(C)N(O)C(C)C(c3cccs3)=[N+]2[O-])cc1` (centres undefined), the cell number change was -38.1%. Also, the concentration at half-maximal activity (AC50) under setting [2] is 0.0058 µM [falling, full curve, poor fit]. For the same compound, the AC50 under setting [1] was 5.8 µM [falling, full curve].

In the case of `COc1ccc2c(c1)NP(=S)(Oc1ccccc1)N2` (centres undefined), the cell number change came out at 9.95%. For the same compound, the half-maximal activity concentration (AC50) under setting [1] is 2.06 µM [rising, full curve, poor fit].

Regarding `CCOC(=O)C1(CCc2ccccc2)CCN(Cc2cccc3c2OCO3)CC1`, the cell number change was -53.8%. In addition, the half-maximal activity concentration (AC50) under setting [2] is 29.1 µM [falling, single point]. Further, the half-maximal activity concentration (AC50) under setting [1] was 29.1 µM [falling, single point].

Take `COC(=O)C1=C(c2ccc(OC)c(OC)c2)C[C@@H]2CC[C@H]1N2C(=O)NCc1ccco1`: the cell number change is 15.7%. In addition, under setting [1], the AC50 was 1.16 µM [rising, partial curve].

With `O=C(CCCC1=NS(=O)(=O)c2ccccc2N1)N1CCC2(CC1)OCCO2`, the cell number change was -19.2%. Besides, under setting [2], the concentration at half-maximal activity (AC50) is 2.59 µM [falling, single point].

For the compound `COC(=O)C1=C(c2ccc(-c3ccccc3)c(F)c2)C[C@@H]2CC[C@H]1N2C(=O)N1CCC(C)CC1`, the cell number change is -36.3%. The AC50 under setting [2] was 18.4 µM [falling, single point]. The concentration at half-maximal activity (AC50) under setting [1] is 0.00517 µM [rising, full curve, poor fit].

Turning to `O=C(C1CC(c2ccc(F)cc2)=NO1)N1CCC2(CC1)OCCO2` (centres undefined), the cell number change is -22.1%.

Consider `CC(C)(C)c1nc(N2CCN(C(=O)c3ccco3)CC2)c2nnn(Cc3ccccc3Cl)c2n1`, for which the cell number change was -28.1%. For the same compound, the AC50 under setting [1] was 29.1 µM [falling, single point].

On to `O=C1NC(=S)N(c2ccccc2F)C(=O)/C1=C\c1cccs1`, for which the cell number change was -30%. In addition, the AC50 under setting [2] is 4.61 µM [falling, full curve, poor fit]. Besides, the AC50 under setting [1] is 32.6 µM [falling, single point].

Turning to `CCOP(=O)(Cc1cc(C(=O)CC)c(C)o1)OCC`, the cell number change amounted to 9.82%. The concentration at half-maximal activity (AC50) under setting [2] was 0.92 µM [falling, full curve, poor fit]. For the same compound, the concentration at half-maximal activity (AC50) under setting [1] was 1.64 µM [falling, partial curve].

Turning to `COCCNC(=O)c1c(NC(=O)c2ccc(Br)o2)n(Cc2ccccc2)c2nc3ccccc3nc12`, the cell number change stood at 13.7%. The half-maximal activity concentration (AC50) under setting [2] was 3.66 µM [rising, partial curve]. Also, the half-maximal activity concentration (AC50) under setting [1] is 0.517 µM [rising, partial curve, poor fit].

In the case of `CC1=C2C(=O)C3C(CC=C4CC(OC5OC(O)C(O)C(O)C5CO)CCC43C)C2CCC12OC1CC(C)CNC1C2C` (centres undefined), the cell number change is -36.2%. Moreover, the half-maximal activity concentration (AC50) under setting [2] was 2.91 µM [falling, full curve]. Further, the AC50 under setting [1] was 13 µM [falling, partial curve].

With `Clc1ccc(CN2CCNCC2)cc1`, the cell number change came out at 51%. The concentration at half-maximal activity (AC50) under setting [2] was 32.6 µM [rising, single point].

Regarding `N[C@@H](Cc1c[nH]c2ccccc12)c1nnc(SCc2ccc(Cl)cc2)o1`, the cell number change was -20.2%. For the same compound, the AC50 under setting [1] was 0.461 µM [rising, single point].

Consider `Cn1c(=O)oc2cc(S(=O)(=O)NCCC(=O)NCCc3ccccc3)ccc21`, for which the AC50 under setting [2] is 13 µM [falling, partial curve].

As to `COc1ccc(Cl)cc1C(=O)C1CCCN(CCO)C1` (centres undefined), the cell number change was found to be 3.24%. Moreover, under setting [1], the AC50 is 0.231 µM [rising, full curve, poor fit].

Regarding `COC(=O)C1=C(c2ccc(F)cc2OCc2ccccc2)C[C@@H]2CC[C@H]1N2C(=O)NC1CCCCC1`, the cell number change is -14%. The concentration at half-maximal activity (AC50) under setting [1] is 29.1 µM [falling, partial curve, poor fit].

For `Cn1c(=O)oc2cc(S(=O)(=O)NCCC(=O)NCc3ccccc3Cl)ccc21`, under setting [2], the AC50 was 2.59 µM [rising, single point].

Turning to `COc1ccc(CNCCc2ccc(Cl)cc2)c(OC)c1OC`, the cell number change worked out at 11.8%.

Take `COC(=O)C1=C(c2cccc(OCc3ccccc3)c2)C[C@@H]2CC[C@H]1N2C(=O)NCCOc1ccccc1Cl`: the cell number change worked out at 5.46%. In addition, the AC50 under setting [1] was 0.326 µM [rising, full curve, poor fit].

For `O=C(NC1CN2CCC1CC2)c1ccc(-c2ccc([N+](=O)[O-])cc2)o1` (centres undefined), the cell number change was -12.7%.

For the compound `C=CCn1c(O)c(C(C)=NCCN2CCCCC2)c(=O)[nH]c1=O`, the cell number change turned out to be 8.52%. The half-maximal activity concentration (AC50) under setting [1] was 2.31 µM [rising, single point].

On to `COC(=O)C1CN(C#N)N(c2ccc(Cl)cc2)C12c1ccccc1-c1ccccc12` (centres undefined), for which the cell number change is -47.4%. For the same compound, under setting [2], the AC50 is 0.92 µM [falling, full curve]. Also, the half-maximal activity concentration (AC50) under setting [1] is 2.06 µM [falling, partial curve].

In the case of `CCOC(=O)C1SC2(C(F)(F)C(F)F)CC1(O)c1c(c(OC)c3occc3c1OC)O2` (centres undefined), the cell number change is -9.56%.

Turning to `COC(=O)C1=C(c2ccc(OC)c(OC)c2)C[C@@H]2CC[C@H]1N2C(=O)N1CCC(O)CC1`, the cell number change was -48.7%. For the same compound, the half-maximal activity concentration (AC50) under setting [2] was 32.6 µM [falling, single point]. Moreover, the AC50 under setting [1] was 29.1 µM [falling, single point].

`COC(=O)C1=C(c2cccc(C#N)c2)C[C@@H]2CC[C@H]1N2C(=O)N1CCC(C)CC1`: the cell number change was -8.66%. Besides, under setting [1], the AC50 is 6.51 µM [rising, single point].

Consider `Cc1cccc(N2C(=O)NC(=O)/C(=C\c3ccc4c(c3)CCCN4Cc3ccccc3)C2=O)c1`, for which the cell number change stood at 4.55%.

With `Cc1cccc(CNCCc2c[nH]c3ccccc23)c1`, the cell number change is -44.2%. For the same compound, under setting [2], the AC50 is 18.4 µM [falling, single point].

With `c1ccc2c(CNC3CCCCCC3)c[nH]c2c1`, the cell number change is -34.3%. Further, the AC50 under setting [2] is 29.1 µM [falling, single point]. Besides, the concentration at half-maximal activity (AC50) under setting [1] is 29.1 µM [falling, single point].

For the compound `O=C(O)Cn1cc(/C=C2\C(=O)NC(=O)N(Cc3ccco3)C2=O)c2ccccc21`, the cell number change worked out at 13.3%.

For the compound `CCOP(=S)(OCC)Oc1nc(Cl)c(Cl)cc1Cl`, the cell number change was -31.9%. Moreover, the concentration at half-maximal activity (AC50) under setting [2] is 2.06 µM [falling, partial curve].

In the case of `CN1CCc2c(c(N3CCCCC3)nc3n[nH]c(N)c23)C1`, the cell number change is -8.86%. The AC50 under setting [1] is 25.9 µM [falling, partial curve].

Turning to `CCCCCn1c(=O)c(C(=O)NCc2ccccc2Cl)c(O)c2ccccc21`, the cell number change was determined as 10.9%. Also, the half-maximal activity concentration (AC50) under setting [1] was 6.51 µM [rising, single point].

For the compound `O=C(O)C(O)(c1ccccc1)C1CCCC1` (centres undefined), the cell number change was -7.94%.

Consider `O=C1Nc2ccc(Br)cc2C(c2ccc(Cl)cc2)=NC1O` (centres undefined), for which the cell number change was -8.36%. For the same compound, the half-maximal activity concentration (AC50) under setting [1] was 6.51 µM [rising, single point].

For the compound `COC(=O)C1=C(c2ccc(F)cc2F)C[C@@H]2CC[C@H]1N2C(=O)NCC1CC1`, the cell number change worked out at 5.17%. The half-maximal activity concentration (AC50) under setting [1] is 4.11 µM [rising, single point].
